The procedure of this series: A fundamental requirement for the effectiveness of anti-AD drugs is their capability to traverse the BBB (blood–brain barrier). […]
Briefly, synthesized compounds were first dissolved in DMSO (10 mM) that was further diluted by the addition of phosphate buffer ([…]) having a pH of 7.4. PBL dissolved in dodecane was used for coating the membranes of the donor plates. Then, the test compound (0.2 mL) was added to the plate, followed by PBS (0.2 mL; pH = 7.4) to the acceptor plate, which was further placed under the donor plate in order to form a “sandwich”. […] A UV plate reader was employed for the measurements of the drug concentration in donor, acceptor, and reference wells. The permeability (Pe) of the compounds was measured by using the following formula. [drawing 2]

The structures appear in SMILES notation. Where two headings read alike, the source gives them in different places.

For `CC(C)NCC(O)COc1ccc(CC(N)=O)cc1` (centres unmarked) [atenolol], the “prediction of CNS penetration” value (class from PAMPA-BBB Pe) is recorded as “CNS– ^c (“CNS–” (prediction of low BBB permeation); Pe (10^–6 cm/s) < 1)”. In the case of `CN1C(=O)CN=C(c2ccccc2)c2cc(Cl)ccc21` [diazepam], the “prediction of CNS penetration” value (PAMPA) was “CNS+ (key: “CNS+” (prediction of high BBB permeation); Pe (10^–6 cm/s) > 4.39; “CNS–” (prediction of low BBB permeation); Pe (10^–6 cm/s) < 1)”.

The values are drawn from paper PMC11923636, “Synthesis, Pharmacological Evaluation, and Molecular Modeling of Phthalimide Derivatives as Monoamine Oxidase and Cholinesterase Dual Inhibitors” (ACS Omega, 2025).
